Reference: the supplement of paper PMC10849652
This is one part of the list.

Protein sequences, listed by entry. Tags and fused reporters are not part of them. Lines headed by an entry give the natural chain unless they say otherwise; changes in a name come on top.
UniProt Q93015: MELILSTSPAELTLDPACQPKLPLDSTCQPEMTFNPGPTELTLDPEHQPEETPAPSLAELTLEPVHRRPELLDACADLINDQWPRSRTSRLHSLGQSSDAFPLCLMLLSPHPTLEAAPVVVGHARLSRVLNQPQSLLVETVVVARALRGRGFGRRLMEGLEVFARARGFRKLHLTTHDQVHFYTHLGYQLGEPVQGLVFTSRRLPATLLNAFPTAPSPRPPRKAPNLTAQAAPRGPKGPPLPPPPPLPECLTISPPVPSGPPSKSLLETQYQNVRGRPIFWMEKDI
UniProt P12883, whole entry, looked up: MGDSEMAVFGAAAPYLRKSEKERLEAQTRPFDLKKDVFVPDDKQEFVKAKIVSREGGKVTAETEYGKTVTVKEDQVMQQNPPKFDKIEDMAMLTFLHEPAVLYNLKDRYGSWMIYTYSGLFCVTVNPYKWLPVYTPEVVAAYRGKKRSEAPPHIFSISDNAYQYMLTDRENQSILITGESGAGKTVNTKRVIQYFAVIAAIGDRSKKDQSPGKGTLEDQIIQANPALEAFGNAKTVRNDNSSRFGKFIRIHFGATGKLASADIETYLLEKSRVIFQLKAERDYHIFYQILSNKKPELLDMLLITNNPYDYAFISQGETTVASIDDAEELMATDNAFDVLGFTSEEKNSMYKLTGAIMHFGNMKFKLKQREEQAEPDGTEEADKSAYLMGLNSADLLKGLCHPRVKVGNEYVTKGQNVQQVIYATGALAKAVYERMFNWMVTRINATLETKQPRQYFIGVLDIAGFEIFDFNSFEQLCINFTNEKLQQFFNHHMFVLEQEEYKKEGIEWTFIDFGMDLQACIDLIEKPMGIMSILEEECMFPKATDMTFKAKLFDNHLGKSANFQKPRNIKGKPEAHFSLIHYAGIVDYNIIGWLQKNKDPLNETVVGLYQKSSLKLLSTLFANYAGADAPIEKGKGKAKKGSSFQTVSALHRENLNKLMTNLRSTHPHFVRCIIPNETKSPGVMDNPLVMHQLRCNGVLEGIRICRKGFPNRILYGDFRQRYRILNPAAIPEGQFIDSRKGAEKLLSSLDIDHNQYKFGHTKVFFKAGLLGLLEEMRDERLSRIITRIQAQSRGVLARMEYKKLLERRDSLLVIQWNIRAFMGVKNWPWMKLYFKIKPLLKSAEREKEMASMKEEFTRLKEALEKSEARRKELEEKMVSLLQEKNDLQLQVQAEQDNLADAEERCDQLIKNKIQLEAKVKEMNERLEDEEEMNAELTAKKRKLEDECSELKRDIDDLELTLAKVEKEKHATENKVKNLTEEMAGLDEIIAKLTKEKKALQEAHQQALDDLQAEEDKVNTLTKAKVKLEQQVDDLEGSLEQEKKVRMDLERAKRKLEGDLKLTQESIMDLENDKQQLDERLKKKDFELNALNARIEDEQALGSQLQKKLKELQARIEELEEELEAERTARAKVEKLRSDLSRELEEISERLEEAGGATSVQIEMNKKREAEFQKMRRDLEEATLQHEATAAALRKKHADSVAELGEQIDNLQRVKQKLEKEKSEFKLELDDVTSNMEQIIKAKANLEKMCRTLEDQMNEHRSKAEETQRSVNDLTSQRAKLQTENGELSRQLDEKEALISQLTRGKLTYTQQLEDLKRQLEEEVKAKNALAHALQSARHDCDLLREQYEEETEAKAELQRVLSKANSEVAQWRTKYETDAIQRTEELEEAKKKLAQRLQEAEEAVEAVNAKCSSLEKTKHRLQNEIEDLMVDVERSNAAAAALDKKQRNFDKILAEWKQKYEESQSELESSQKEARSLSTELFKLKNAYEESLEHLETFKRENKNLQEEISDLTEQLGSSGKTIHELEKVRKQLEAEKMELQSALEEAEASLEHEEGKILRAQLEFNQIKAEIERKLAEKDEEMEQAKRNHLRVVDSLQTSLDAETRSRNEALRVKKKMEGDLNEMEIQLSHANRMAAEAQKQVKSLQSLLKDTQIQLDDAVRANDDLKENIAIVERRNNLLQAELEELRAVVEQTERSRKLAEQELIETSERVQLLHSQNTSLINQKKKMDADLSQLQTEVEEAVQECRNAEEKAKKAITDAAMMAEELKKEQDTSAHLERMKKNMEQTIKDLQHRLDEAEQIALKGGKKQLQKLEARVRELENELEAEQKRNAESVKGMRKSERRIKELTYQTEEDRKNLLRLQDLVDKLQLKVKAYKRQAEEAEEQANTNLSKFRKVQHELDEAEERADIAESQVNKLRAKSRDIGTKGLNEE
UniProt Q96BF6: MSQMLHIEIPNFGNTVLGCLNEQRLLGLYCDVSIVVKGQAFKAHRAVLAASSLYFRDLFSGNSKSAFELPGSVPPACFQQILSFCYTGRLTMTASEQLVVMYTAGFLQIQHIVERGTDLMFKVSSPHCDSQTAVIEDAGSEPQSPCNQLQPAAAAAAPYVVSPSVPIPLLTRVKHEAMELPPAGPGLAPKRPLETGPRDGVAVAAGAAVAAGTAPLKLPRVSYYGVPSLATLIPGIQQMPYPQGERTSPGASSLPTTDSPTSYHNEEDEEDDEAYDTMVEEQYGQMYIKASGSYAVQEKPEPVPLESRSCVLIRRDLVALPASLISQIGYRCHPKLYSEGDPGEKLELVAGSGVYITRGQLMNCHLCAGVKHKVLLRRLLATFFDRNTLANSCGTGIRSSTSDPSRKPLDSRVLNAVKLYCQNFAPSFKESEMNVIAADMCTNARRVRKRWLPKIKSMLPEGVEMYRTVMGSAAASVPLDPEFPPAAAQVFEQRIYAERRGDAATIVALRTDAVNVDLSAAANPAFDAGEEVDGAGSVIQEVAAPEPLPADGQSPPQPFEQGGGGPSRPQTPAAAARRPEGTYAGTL
UniProt Q8IUG5: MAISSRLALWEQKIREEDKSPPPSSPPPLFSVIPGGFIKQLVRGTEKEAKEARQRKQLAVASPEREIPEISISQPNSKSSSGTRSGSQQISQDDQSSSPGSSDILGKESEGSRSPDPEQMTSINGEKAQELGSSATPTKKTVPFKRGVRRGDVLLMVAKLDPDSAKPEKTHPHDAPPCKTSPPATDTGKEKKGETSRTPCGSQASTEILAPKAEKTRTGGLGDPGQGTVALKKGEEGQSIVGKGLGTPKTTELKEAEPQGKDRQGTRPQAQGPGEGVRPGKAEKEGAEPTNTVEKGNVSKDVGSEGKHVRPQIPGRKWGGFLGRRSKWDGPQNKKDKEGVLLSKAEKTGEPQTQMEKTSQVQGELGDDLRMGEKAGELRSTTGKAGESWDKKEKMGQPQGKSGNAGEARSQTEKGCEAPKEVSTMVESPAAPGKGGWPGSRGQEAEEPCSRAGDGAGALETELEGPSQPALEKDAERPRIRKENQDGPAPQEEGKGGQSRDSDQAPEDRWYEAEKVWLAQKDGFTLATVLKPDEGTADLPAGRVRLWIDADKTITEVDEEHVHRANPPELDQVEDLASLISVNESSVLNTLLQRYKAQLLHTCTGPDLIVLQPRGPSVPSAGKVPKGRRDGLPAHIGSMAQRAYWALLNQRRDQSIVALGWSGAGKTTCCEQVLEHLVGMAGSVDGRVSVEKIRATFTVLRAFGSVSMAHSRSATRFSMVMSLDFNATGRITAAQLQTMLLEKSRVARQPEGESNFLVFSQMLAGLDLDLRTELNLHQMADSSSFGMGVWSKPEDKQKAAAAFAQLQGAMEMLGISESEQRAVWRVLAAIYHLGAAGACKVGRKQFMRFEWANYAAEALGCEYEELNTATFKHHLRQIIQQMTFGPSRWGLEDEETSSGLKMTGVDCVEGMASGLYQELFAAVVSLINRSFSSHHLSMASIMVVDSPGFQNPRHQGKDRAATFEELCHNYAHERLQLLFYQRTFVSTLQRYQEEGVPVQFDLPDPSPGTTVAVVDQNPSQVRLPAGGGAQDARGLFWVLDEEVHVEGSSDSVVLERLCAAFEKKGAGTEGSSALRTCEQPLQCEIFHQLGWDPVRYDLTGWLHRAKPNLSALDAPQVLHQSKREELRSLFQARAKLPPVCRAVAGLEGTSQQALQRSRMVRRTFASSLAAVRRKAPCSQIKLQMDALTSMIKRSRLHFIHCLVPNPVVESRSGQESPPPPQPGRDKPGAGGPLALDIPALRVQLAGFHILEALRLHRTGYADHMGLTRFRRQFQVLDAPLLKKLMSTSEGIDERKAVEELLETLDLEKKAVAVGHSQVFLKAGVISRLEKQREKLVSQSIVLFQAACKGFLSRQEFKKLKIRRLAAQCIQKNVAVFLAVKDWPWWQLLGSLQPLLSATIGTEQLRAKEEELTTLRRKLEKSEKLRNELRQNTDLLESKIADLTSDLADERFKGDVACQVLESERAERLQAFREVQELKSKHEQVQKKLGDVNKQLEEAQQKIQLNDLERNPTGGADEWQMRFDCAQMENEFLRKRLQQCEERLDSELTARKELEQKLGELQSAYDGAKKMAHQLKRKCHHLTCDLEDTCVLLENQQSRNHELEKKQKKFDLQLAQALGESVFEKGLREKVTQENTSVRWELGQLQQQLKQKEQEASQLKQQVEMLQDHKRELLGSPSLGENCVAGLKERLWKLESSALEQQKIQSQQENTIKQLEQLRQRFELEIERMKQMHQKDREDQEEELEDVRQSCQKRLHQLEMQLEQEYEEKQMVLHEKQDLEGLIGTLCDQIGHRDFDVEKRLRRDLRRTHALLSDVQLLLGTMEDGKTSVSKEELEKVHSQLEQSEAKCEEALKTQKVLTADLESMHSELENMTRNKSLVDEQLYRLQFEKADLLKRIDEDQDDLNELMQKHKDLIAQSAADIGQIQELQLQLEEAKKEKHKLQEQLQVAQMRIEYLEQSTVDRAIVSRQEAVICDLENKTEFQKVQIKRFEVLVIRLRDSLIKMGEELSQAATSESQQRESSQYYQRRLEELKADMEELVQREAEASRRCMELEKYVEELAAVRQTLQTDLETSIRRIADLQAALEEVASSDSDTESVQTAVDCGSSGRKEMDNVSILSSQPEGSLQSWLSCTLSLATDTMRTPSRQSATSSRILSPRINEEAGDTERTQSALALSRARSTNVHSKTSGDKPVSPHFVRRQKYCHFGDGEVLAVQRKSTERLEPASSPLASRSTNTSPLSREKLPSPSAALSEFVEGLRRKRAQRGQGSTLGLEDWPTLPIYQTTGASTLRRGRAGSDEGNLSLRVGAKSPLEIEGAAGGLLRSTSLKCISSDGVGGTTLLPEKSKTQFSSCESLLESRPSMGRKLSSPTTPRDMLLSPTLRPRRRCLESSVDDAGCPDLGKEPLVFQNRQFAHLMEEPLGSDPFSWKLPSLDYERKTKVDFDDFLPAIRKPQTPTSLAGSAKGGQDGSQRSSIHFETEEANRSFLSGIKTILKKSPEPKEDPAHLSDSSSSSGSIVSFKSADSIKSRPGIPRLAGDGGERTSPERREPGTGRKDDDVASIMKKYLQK
UniProt Q8WUY8: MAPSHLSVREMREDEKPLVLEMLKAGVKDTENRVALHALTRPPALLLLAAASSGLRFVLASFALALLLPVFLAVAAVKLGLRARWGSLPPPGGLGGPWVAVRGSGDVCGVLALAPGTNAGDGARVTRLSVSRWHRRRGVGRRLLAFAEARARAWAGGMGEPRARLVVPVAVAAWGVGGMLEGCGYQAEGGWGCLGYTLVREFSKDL
UniProt G3V1V0: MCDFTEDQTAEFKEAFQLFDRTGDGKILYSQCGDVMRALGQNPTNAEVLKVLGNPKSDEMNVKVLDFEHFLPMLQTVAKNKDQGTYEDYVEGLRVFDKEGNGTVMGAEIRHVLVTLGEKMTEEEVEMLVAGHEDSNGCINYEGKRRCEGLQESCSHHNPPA
UniProt P01106: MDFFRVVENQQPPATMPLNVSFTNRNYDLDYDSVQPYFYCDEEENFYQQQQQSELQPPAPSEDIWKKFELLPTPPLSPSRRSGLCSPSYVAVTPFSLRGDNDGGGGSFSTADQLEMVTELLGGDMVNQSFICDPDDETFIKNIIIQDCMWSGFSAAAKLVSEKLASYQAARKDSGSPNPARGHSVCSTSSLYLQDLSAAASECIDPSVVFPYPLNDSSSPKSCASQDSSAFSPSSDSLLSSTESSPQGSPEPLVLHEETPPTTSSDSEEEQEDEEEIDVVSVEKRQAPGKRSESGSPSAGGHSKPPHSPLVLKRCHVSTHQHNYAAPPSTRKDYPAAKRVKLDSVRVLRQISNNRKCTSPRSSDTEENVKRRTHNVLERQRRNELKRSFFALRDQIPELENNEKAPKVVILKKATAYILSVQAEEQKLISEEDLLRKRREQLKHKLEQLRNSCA
UniProt Q15080: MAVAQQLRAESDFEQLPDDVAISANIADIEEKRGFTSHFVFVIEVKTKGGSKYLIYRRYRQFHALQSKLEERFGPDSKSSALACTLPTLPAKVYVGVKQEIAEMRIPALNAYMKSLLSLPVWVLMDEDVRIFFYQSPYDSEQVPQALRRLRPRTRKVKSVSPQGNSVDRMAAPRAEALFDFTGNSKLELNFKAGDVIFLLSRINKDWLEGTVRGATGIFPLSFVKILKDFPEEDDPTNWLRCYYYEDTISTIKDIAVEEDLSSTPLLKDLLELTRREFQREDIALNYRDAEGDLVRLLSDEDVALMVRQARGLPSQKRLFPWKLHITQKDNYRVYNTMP

Key:
Experiment in all cases: log2 fold change, soluble protein after heating vs DMSO (PISA); higher = thermal stabilisation; K562 lysate, 10 uM; active = over 0.2 and 3.5 SD of the protein, either way, in both replicates (recomputed)
erlotinib = compound: C#Cc1cccc(Nc2ncnc3cc(OCCOC)c(OCCOC)cc23)c1 [erlotinib]
How it was run: (§1)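 Soluble protein was defined as the supernatant remaining after 21,000xg for 90 min, following pooling of heated aliquots and adjustment to 0.5% NP-40 at 4°C. Before that, crude K562 extract at 1 mg/mL protein in PBS pH 7.4 with 1 mM MgCl2 was treated with 10 μM compound for 30 min and heated for 3 min across 48°C-58°C. Quantification used TMTpro 16plex LC-MS/MS with channel sums equalised, and values are log-two fold changes in thermal stability relative to solvent controls from duplicates.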

[1] = compound: C1=CC(=CC=C1C2=NC3=C(N2)C=C(C=C3)C(=O)N)OC4=CC=C(C=C4)Cl
How it was run: as §1

[2] = compound: C1=CC=C(C=C1)C2=NC(=C(N2)C3=CC=NC=C3)C4=CC(=C(C=C4)Cl)O
How it was run: as §1

IRAK-1-4 Inhibitor I = compound: C1COCCN1CCN2C3=CC=CC=C3N=C2NC(=O)C4=CC(=CC=C4)[N+](=O)[O-] [IRAK-1-4 Inhibitor I]
How it was run: as §1

[3] = compound: C/C(=N\NC(=O)C1=CC(=CC=C1)S(=O)(=O)N2CCOCC2)/C3=C(C=CC(=C3)Cl)O
How it was run: as §1

[4] = compound: C1=CC2=C(C=CC(=C2)/C=C\3/C(=O)NC(=NCC4=CC=CS4)S3)N=C1
How it was run: as §1

[5] = compound: C1=CC=C2C(=C1)C3=NNC4=CC=CC(=C43)C2=O
How it was run: as §1

[6] = compound: C1=CC2=NC=CN=C2C=C1/C=C/3\C(=O)NC(=O)S3
How it was run: as §1

[7] = compound: C1CCN(C1)C(=O)NC2=CC=CC(=C2)NC3=NC=C(C(=N3)NCCC4=CN=CN4)Br
How it was run: as §1

[8] = compound: C1CN(CCC1(CC2=CC=C(C=C2)Cl)N)C3=NC=NC4=C3C=CN4
How it was run: as §1

Measured: log2 fold change

NAA80 isoform 2 (UniProt Q93015)
inactive: erlotinib 0.15 | [1] 0.155 | [2] 0.035 | IRAK-1-4 Inhibitor I 0.199

MYNN (UniProt Q9NPC7)
inactive: erlotinib 0.153 | [3] -0.478 | [1] -0.484 | [4] 0.137 | [2] -0.048 | [5] -0.271 | IRAK-1-4 Inhibitor I 0.049

NCOA1 isoform 2 (UniProt Q15788)
inactive: erlotinib 0.277 | [3] 0.006 | [1] -0.016 | [4] 0.144 | [5] -0.075

NAP1L4 (UniProt C9JZI7)
inactive: erlotinib -0.197 | [1] -0.078

MYH2 (UniProt Q9UKX2)
inactive: [6] 0.697

MYL12A (UniProt P19105)
inactive: erlotinib 0.027 | [1] 0.078

MUS81 (UniProt Q96NY9)
inactive: erlotinib -0.088 | [1] 0.025 | [6] -0.13 | [2] 0.033 | IRAK-1-4 Inhibitor I -0.081

MYLK (UniProt Q15746)
inactive: [3] -0.067 | [4] 0.027 | [6] 0.025 | [5] 0.345 | [7] 0.106 | [8] -0.262

MYL6 isoform 2 (UniProt P60660)
inactive: erlotinib -0.015 | [3] 0.157 | [1] 0.059 | [4] 0.049 | [2] -0.009 | [5] 0.096 | [7] 0.188 | [8] 0.027 | IRAK-1-4 Inhibitor I 0.026

NCKAP5L (UniProt Q9HCH0)
inactive: erlotinib 0 | [1] 0.121 | [2] 0.01 | [7] -0.035 | [8] -0.03 | IRAK-1-4 Inhibitor I 0.031

MYH7 (UniProt P12883)
inactive: [6] 0.545

MYLK3 (UniProt Q32MK0)
inactive: erlotinib 0.184 | [1] 0.036 | [6] -0.089 | [2] 0.17 | [7] -0.204 | [8] 0.18 | IRAK-1-4 Inhibitor I -0.051

NCLN isoform 2 (UniProt Q969V3)
inactive: [3] -0.132 | [4] -0.175 | [2] 0.349 | [5] 0.206 | [7] 0.024 | [8] -0.182 | IRAK-1-4 Inhibitor I 0.13

MYBL2 (UniProt P10244)
inactive: erlotinib 0.02 | [3] 0.014 | [1] -0.011 | [4] 0.035 | [2] 0.005 | [5] 0.078 | [7] -0.013 | [8] -0.036 | IRAK-1-4 Inhibitor I 0.009

NAB1 (UniProt Q13506)
inactive: erlotinib -0.014 | [1] 0.392 | [6] -0.081 | [2] -0.026 | IRAK-1-4 Inhibitor I 0.107

NACC2 (UniProt Q96BF6)
inactive: erlotinib -0.157 | [3] -0.188 | [1] 0 | [4] 0.107 | [2] 0.162 | [5] 0.087 | [7] -0.085 | [8] -0.016 | IRAK-1-4 Inhibitor I 0.143

Pulled one by one from the list above (2):
MYLK3 (UniProt Q32MK0)
inactive: erlotinib 0.184 | [1] 0.036 | [6] -0.089 | [2] 0.17 | [7] -0.204 | [8] 0.18 | IRAK-1-4 Inhibitor I -0.051

NAB1 (UniProt Q13506)
inactive: erlotinib -0.014 | [1] 0.392 | [6] -0.081 | [2] -0.026 | IRAK-1-4 Inhibitor I 0.107

More results follow:

MXRA7 (UniProt P84157)
inactive: erlotinib -0.001 | [3] 0.062 | [1] 0.118 | [4] 0.17 | [2] -0.062 | [5] -0.135 | [7] 0.02 | [8] 0 | IRAK-1-4 Inhibitor I -0.043

MYO18B isoform 3 (UniProt Q8IUG5)
inactive: erlotinib -0.258 | [3] 0.051 | [1] -0.062 | [4] 0.018 | [6] -0.138 | [5] -0.026 | [7] -0.029 | [8] -0.071

NASP isoform 2 (UniProt P49321)
inactive: [6] -0.135

NAT14 (UniProt Q8WUY8)
inactive: erlotinib 0 | [3] 0.046 | [1] -0.05 | [4] 0.025 | [2] 0.212 | [5] -0.074 | [7] -0.115 | [8] 0.049 | IRAK-1-4 Inhibitor I -0.258

NABP1 (UniProt Q96AH0)
inactive: [3] -0.045 | [4] -0.053 | [5] -0.238 | [7] 0.114 | [8] -0.048

NCCRP1 (UniProt Q6ZVX7)
inactive: [6] 0.48 | [2] 0.133 | IRAK-1-4 Inhibitor I -0.13

N4BP3 (UniProt O15049)
inactive: erlotinib -0.038 | [1] 0.056 | [6] -0.107

MYO1G (UniProt B0I1T2)
inactive: erlotinib 0.052 | [1] 0.012 | [6] -0.114 | [7] -0.109 | [8] -0.102

MYL6 (UniProt G3V1V0)
inactive: erlotinib 0.092 | [3] -0.191 | [1] 0.036 | [4] 0.22 | [2] 0.002 | [5] -0.255 | [7] -0.125 | [8] 0.045 | IRAK-1-4 Inhibitor I -0.024

MYC isoform 2 (UniProt P01106)
inactive: [2] 0.084 | IRAK-1-4 Inhibitor I 0.033

MYH3 (UniProt P11055)
inactive: erlotinib 0 | [3] 0.077 | [1] 0.064 | [4] 0.14 | [2] 0.025 | [5] 0.037 | IRAK-1-4 Inhibitor I 0.032

NAV2 (UniProt Q8IVL1)
inactive: [6] -0.001 | [2] 0.017 | [7] -0.129 | [8] -0.199 | IRAK-1-4 Inhibitor I 0.086

NACA2 (UniProt Q9H009)
inactive: [2] -0.058 | IRAK-1-4 Inhibitor I -0.022

NCF4 (UniProt Q15080)
inactive: [6] 0.019 | [7] -0.01 | [8] 0.052

MYH6 (UniProt P13533)
inactive: erlotinib 0.107 | [1] 0.08 | [6] 0.304 | [2] 0.029 | [7] -0.049 | [8] 0.115 | IRAK-1-4 Inhibitor I 0.052

MUC5B (UniProt Q9HC84)
inactive: erlotinib -0.049 | [1] -0.075 | [7] -0.076 | [8] -0.277

MYT1L (UniProt Q9UL68)
inactive: [2] 0.017 | IRAK-1-4 Inhibitor I 0.092

NCL (UniProt H7BY16)
inactive: [6] 0.051

NAMPT (UniProt C9JF35)
inactive: erlotinib 0.014 | [1] -0.054

N4BP2L1 (UniProt Q5TBK1)
inactive: [3] -0.03 | [4] -0.177 | [6] -0.058 | [5] -0.137 | [7] -0.145 | [8] -0.191

NAB2 (UniProt Q15742)
inactive: erlotinib -0.015 | [3] 0.018 | [1] 0.016 | [4] -0.015 | [6] 0.009 | [5] -0.05 | [7] 0.02 | [8] 0.002

NAA16 (UniProt Q6N069)
inactive: [3] -0.036 | [4] -0.022 | [6] 0.027 | [2] -0.127 | [5] -0.206 | [7] 0.136 | [8] -0.038 | IRAK-1-4 Inhibitor I 0.017

NAGPA (UniProt Q9UK23)
inactive: erlotinib -0.009 | [3] -0.014 | [1] 0.013 | [4] -0.003 | [6] -0.004 | [5] 0.054

MXRA8 isoform 2 (UniProt Q9BRK3)
inactive: [6] -0.049
